According to PubChem BioAssay AID1117319 (Southern Research Institute, 2015):
Hit rate of the full screen: of about 260,000 compounds, about 1,500 (0.58%) were called active. The shares of active, inactive and inconclusive entries below differ from those in the screen.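 The calls were made as follows: active = inhibition above a set limit at one or more doses, reproduced on every date tested; inconclusive = results disagree between test dates, or hit never tested in dose response; inactive = the rest.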

The chains behind the UniProt entries cited, without tags or fusion partners. Where a name states a change or a piece, a line headed by the entry shows the natural chain unless it says otherwise.
UniProt P69720: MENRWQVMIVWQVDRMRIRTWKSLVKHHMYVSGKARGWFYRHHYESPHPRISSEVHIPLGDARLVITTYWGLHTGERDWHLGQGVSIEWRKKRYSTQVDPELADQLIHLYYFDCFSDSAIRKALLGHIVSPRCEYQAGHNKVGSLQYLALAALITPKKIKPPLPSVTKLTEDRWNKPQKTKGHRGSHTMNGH
UniProt P69721: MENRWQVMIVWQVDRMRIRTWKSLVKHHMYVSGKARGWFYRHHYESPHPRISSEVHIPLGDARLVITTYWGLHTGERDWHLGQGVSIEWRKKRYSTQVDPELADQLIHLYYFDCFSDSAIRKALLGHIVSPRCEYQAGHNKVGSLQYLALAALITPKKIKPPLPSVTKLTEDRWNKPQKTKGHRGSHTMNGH
UniProt P69722: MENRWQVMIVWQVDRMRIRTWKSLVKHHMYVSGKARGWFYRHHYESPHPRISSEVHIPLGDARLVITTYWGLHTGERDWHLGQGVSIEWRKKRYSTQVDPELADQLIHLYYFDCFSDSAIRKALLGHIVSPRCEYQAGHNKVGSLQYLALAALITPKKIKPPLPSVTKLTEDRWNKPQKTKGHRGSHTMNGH
UniProt P69723: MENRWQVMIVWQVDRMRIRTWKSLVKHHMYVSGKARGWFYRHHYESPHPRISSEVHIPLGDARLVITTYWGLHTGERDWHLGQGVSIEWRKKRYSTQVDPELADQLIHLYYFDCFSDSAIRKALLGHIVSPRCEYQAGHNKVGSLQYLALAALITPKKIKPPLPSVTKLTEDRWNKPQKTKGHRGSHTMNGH
UniProt Q9HC16: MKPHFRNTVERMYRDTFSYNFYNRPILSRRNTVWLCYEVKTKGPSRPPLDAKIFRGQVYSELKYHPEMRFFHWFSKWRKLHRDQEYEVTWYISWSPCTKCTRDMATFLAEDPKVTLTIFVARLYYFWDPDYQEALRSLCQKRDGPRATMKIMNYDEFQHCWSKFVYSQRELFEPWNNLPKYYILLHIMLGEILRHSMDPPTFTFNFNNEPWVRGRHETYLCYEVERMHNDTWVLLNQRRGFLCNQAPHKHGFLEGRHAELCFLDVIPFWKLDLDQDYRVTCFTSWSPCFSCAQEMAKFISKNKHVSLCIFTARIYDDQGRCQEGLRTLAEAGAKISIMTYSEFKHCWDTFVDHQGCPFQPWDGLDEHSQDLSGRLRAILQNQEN

Molecular target: Virion infectivity factor (Human immunodeficiency virus type 1 group M subtype B (isolate BH10)) + Virion infectivity factor (Human immunodeficiency virus type 1 group M subtype B (isolate BRU/LAI)) + Virion infectivity factor (Human immunodeficiency virus type 1 group M subtype B (isolate PCV12)) + Virion infectivity factor (Human immunodeficiency virus type 1 group M subtype B (isolate HXB2)) + DNA dC->dU-editing enzyme APOBEC-3G (Homo sapiens) (UniProt P69720+P69721+P69722+P69723+Q9HC16)
Assay: inhibitors of Vif binding to APOBEC3G peptide, primary screen, biochemical, TR-FRET, GST-Vif 1-94, biotin-A3G peptide, dose response retest (AID 1117319);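 also: Vif residues 1-94 fused to GST binding biotinylated APOBEC3G peptide 110-148; 0% = full assay without inhibitor and 100% = GST in place of GST-Vif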
Conditions: active compounds read high

SMILES | inhibition
O=S(=O)(Cc1ccccc1)NCc1ccccn1 | inconclusive: 62.7%
COc1ccc(CC(=O)OCC(=O)Nc2ccc(N3CCOCC3)cc2)cc1 | inconclusive: 51.4%
COc1ccc(NC(=O)c2noc3c2CCC3)cc1 | inconclusive: 35.4%
Cc1nc(-c2ccc(O)c(O)c2)cs1 | inconclusive: 53.5%
O=C1Nc2ccccc2S/C1=C/Nc1cccc(Cl)c1 | inconclusive: 38.3%
N#C/C(=C/c1ccc(N2CCOCC2)o1)c1nc2ccccc2[nH]1 | inconclusive: 53.4%
CSc1ccc(S(=O)(=O)NCCCOC(C)C)cc1 | inconclusive: 55.4%
Clc1ncnc2scc(C3COc4ccccc4O3)c12 (centres undefined) | inconclusive: 37.5%
Cc1ccc(CCNc2ncnc(Cl)c2N)cc1 | inactive: -3.15%
CCOc1ccc(-c2nnc3n2N=C(c2ccc(OC)cc2)CS3)cc1 | inconclusive: 37.9%
CCCCCC(=O)C(=O)c1ccc(O)cc1O | inconclusive: 62.3%
c1ccc2oc(-c3[nH]ncc3CN3CCSCC3)cc2c1 | inconclusive: 36.6%
COc1ccc(OC)c(N)c1 | inactive: 14.5%
Cc1cc(C(=O)c2ccc(C(C)(C)C)cc2)c(NC(=O)CCl)s1 | inconclusive: 49.3%
Cc1nc(N)c(C#N)c(-c2ccc3c(c2)OCO3)c1C | inactive: -4.59%
COC(=O)c1ccc(NC(=O)COc2ccc(S(=O)(=O)NC(C)C)cc2)cc1 | inconclusive: 33.6%
COc1ccccc1N(CC(=O)Nc1ccc(F)c(F)c1)S(C)(=O)=O | inconclusive: 46%
COc1ccc(OC)c(NC(=O)CCNS(=O)(=O)c2ccc3[nH]c(=O)oc3c2)c1 | inconclusive: 46.8%
CC1=CSC2=NC(=O)/C(=C\c3cccn3-c3ccccc3)C(=N)N12 | inconclusive: 43.4%
O=C(Nc1ccccn1)C1CCN(S(=O)(=O)c2cccs2)CC1 | inactive: -2.3%

SMILES | inhibition
CCS(=O)(=O)c1ccc2c(c1)N(S(C)(=O)=O)CC(C(=O)NN)O2 (centres undefined) | inactive: -7.03%
CCCc1cc(N2CCN(c3ccccn3)CC2)n2nc(C)c(-c3ccccc3)c2n1 | inconclusive: 48.9%
CCOCCCNC(=O)/C(C#N)=C/c1ccc([N+](=O)[O-])o1 | inactive: 26.7%
CCCN1CCN(C(=S)Nc2ccc(S(N)(=O)=O)cc2)CC1 | inconclusive: 42.2%
CN(C)CCNC(=O)C(=O)NCC1OCCCN1S(=O)(=O)c1cccs1 (centres undefined) | inconclusive: 49.5%
Cc1ccc(CCNC(=O)CS(=O)Cc2nc(-c3cccs3)oc2C)cc1 (centres undefined) | inconclusive: 59.8%
O=C(NC(=S)N(Cc1ccccc1)Cc1ccccc1)C1CCCCC1 | inconclusive: 60.9%
CC1CC(C)CN(C(=O)C(NS(=O)(=O)c2ccc3c(c2)oc(=O)n3C)C(C)C)C1 (centres undefined) | inconclusive: 33%
COCc1cc(Sc2cccc(Cl)c2Cl)nc(-c2ccccc2)n1 | inconclusive: 36.7%
Cc1ccc(N=Cc2cccc(O)c2O)c(C)c1 | inconclusive: 57.2%
CS(=O)(=O)N1CCN(C(=O)c2ccncc2)CC1 | inconclusive: 34.4%
Cc1cc(OCc2ccc(C(=O)n3cccn3)o2)ccc1Cl | inconclusive: 35%
C=CCn1c(CCc2cc(C(C)(C)C)c(O)c(C(C)(C)C)c2)n[nH]c1=S | inconclusive: 48.2%
CCOc1ccc(Cl)cc1CNCCCSc1ncccn1 | inconclusive: 46.8%
CC(=O)N1CCSc2ccc(S(=O)(=O)NCCc3ccc(C)cc3)cc21 | inactive: 2.49%
CCCCCCCCOC(=O)c1cc([N+](=O)[O-])c(Sc2ncnc3nc[nH]c23)c([N+](=O)[O-])c1 | inactive: 29.5%
Nc1ncnc(Nc2ccccc2C(F)(F)F)n1 | inconclusive: 45.3%
COc1ccc(/C=C/c2nc3ccccc3n2C)cc1 | inconclusive: 46.4%
CC1CCCN(Cc2csc(N)n2)C1 (centres undefined) | inconclusive: 55.9%
Cc1ccc(OCc2nnc(SCC(=O)Nc3nccs3)n2-c2ccccc2)cc1C | inconclusive: 57.8%

SMILES | inhibition
COCCNC(=O)C1CCN(S(=O)(=O)c2c(C)noc2/C=C/c2cccs2)CC1 | inconclusive: 36.6%
Cc1nnc(SCC(=O)N(C)Cc2ccccc2)[nH]c1=O | inconclusive: 35.6%
Cc1ccc(CNC(=O)C2c3ccccc3C(=O)N(C)C2c2c[nH]c3ccccc23)o1 (centres undefined) | inconclusive: 34%
COC(=O)c1ccc(NCCc2csc(-c3ccc(C)cc3)n2)c([N+](=O)[O-])c1 | inconclusive: 46.5%
CCOc1ccccc1C1C(C#N)=C(N)Oc2cc(C)n(Cc3ccccn3)c(=O)c21 (centres undefined) | inconclusive: 37.2%
CC1CCC(NC(=O)Nc2cccs2)CC1 (centres undefined) | inconclusive: 37.2%
CC1CCN(C(=O)Nc2ccc3nsnc3c2)CC1 | inconclusive: 41.6%
CCn1cnc2c(cnn2-c2ccccc2)c1=O | inconclusive: 33.1%
Cc1cccc(C)c1NC(=O)C(=O)c1cn(C)c2ccccc12 | inconclusive: 34%
CC(C)(C)Nc1nc(Cl)nc(N(C#N)CN2C(=O)c3ccccc3S2(=O)=O)n1 | inconclusive: 42.1%
COCCNC(=O)C(c1ccc(C)o1)N(Cc1cccs1)C(=O)c1snc(C(N)=O)c1N (centres undefined) | inconclusive: 42.2%
COc1cc(NC(=O)Nc2cccc(Cl)c2)c(C(=O)O)cc1OC | inconclusive: 42.4%
CCOc1ccc(OCC(=O)N2CCOCC2)cc1 | inconclusive: 18%
CCn1c(COc2ccccc2)nnc1SCC(=O)c1cccc([N+](=O)[O-])c1 | inconclusive: 47.5%
COC(=O)c1ccc(/C=N/N2C(C)CCCC2C)cc1 (centres undefined) | inconclusive: 53.5%
CCOc1ccc2c(c1)-c1c(ssc1=S)C(C)(C)N2C(=O)c1ccco1 | inconclusive: 35.9%
COC(=O)c1ccc(N2NC(=O)/C(=C/c3ccc(-c4ccc(Cl)c(C(=O)O)c4)o3)C2=O)cc1 | inconclusive: 42.4%
O=C(O)COc1ccccc1/C=N/NC(=O)c1cccc(S(=O)(=O)Nc2cccc(Cl)c2)c1 | inconclusive: 46.7%
CC(Sc1nc2sc3c(c2c(=O)n1-c1ccccc1)CCCC3)C(=O)O (centres undefined) | inactive: 17%
